Source: publication PMC8888699, “Crystal structure and catalytic mechanism of the MbnBC holoenzyme required for methanobactin biosynthesis” (Cell Research, 2022)
No constants are given. Whether binding was seen depends on the method and setting. For some assays here: In cells and extracts the contact can be indirect. Some results given as binding are weak or reduced against the parent protein; the word gives no strength.

T1: MtMbnBC complex (Methylosinus trichosporium OB3b)
T1 sequence 1: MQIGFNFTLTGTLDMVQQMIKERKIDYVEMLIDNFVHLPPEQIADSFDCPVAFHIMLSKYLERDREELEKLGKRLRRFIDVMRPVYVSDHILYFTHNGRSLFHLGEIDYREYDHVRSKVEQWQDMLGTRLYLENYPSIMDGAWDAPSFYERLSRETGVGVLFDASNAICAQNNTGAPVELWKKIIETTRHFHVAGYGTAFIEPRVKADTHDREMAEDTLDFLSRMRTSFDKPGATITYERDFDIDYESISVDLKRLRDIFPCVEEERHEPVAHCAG
T1 sequence 2: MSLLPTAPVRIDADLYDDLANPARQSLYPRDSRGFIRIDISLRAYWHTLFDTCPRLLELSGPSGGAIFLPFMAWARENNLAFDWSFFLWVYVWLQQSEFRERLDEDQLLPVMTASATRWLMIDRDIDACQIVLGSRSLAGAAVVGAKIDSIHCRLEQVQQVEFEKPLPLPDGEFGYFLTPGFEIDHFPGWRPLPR

T2: MtMbnC (Methylosinus trichosporium OB3b)
T2 sequence: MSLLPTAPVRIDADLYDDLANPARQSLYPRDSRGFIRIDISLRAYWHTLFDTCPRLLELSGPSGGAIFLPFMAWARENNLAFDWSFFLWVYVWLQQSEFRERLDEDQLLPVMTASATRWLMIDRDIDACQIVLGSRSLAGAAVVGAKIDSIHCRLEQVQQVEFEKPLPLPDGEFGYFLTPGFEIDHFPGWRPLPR


Legend:
[1] = biological target: T1, MtMbnBC complex (Methylosinus trichosporium OB3b); test: ITC; MbnA peptide (2 mM, in distilled water) injected, 20 x 2.5 uL every 120 s, into a cell with 190 uL MbnBC or mutant MbnBC (1 mg/mL) in 25 mM HEPES pH 8.0, 100 mM NaCl; 16 °C; both purified
[2] = biological target: T2, MtMbnC (Methylosinus trichosporium OB3b); test: pull-down; His6-MbnC and untagged MbnB co-expressed in E. coli from pET-Duet-1; applied to a nickel affinity column

binding [1]	binding [2]	Binder
binds	–	MTVKIAQKKVLPVIGRAAALCGSCYPCSCM [MtMbnA peptide]
–	binds	MtMbnB (enzyme, UniProt A0A2D2D5M1 1-276) MQIGFNFTLTGTLDMVQQMIKERKIDYVEMLIDNFVHLPPEQIADSFDCPVAFHIMLSKYLERDREELEKLGKRLRRFIDVMRPVYVSDHILYFTHNGRSLFHLGEIDYREYDHVRSKVEQWQDMLGTRLYLENYPSIMDGAWDAPSFYERLSRETGVGVLFDASNAICAQNNTGAPVELWKKIIETTRHFHVAGYGTAFIEPRVKADTHDREMAEDTLDFLSRMRTSFDKPGATITYERDFDIDYESISVDLKRLRDIFPCVEEERHEPVAHCAG
